Data as given in PubChem BioAssay AID1159600 (NIAID, 2016).

Assay: 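How human macrophage-like cells depend on pathway genes for TLR7/8 agonist response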 (primary screen)
Cells: human THP-1 TNF reporter clone B5, made macrophage-like with PMA
Reagents: single siRNA against human genes
Duration: 4 h ligand stimulation, assayed 48 to 72 h after siRNA transfection
Conditions: R848 (TLR7/8 agonist) for 4 hours before lysis; dose not given
Measured: 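TNF promoter firefly to renilla luciferase ratio after 4 h R848, scaled per plate by median and MAD, robust z-score against negative controls, mean of replicates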
Reading the numbers: TNF reporter z-score: higher = stronger TNF promoter reporter signal after R848
Hit rule: 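Active where mean z-score is about 1.5 or more from zero in either direction; depositor grades use cut-offs of 1, 1.5, 2 and 2.5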
Calls: active = strong change in TNF reporter (up or down); inactive = little change
The whole screen tested 756 reagents; below is a part drawn at random. Of all reagents, 134 (18%) got an active call. 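Active includes both reduced and increased reporter signal, though most active siRNAs reduce it; R848 dose unknown.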 Reagents against one gene are numbered here. The record does not give: the amount of reagent.

| gene | reagent | TNF reporter z-score | activity call |
| --- | --- | --- | --- |
| LY86 (lymphocyte antigen 86) | 1 | 0.795 | inactive |
| LY86 (lymphocyte antigen 86) | 2 | -1.43 | inactive |
| LY86 (lymphocyte antigen 86) | 3 | -0.595 | inactive |
| LY86 (lymphocyte antigen 86) | 4 | -1.98 | active |
| LY86 (lymphocyte antigen 86) | 5 | -1.65 | active |
| LY86 (lymphocyte antigen 86) | 6 | -0.831 | inactive |
| MAP3K14 (mitogen-activated protein kinase kinase kinase 14) | 1 | 0.184 | inactive |
| MAP3K14 (mitogen-activated protein kinase kinase kinase 14) | 2 | 0.962 | inactive |
| MAP3K14 (mitogen-activated protein kinase kinase kinase 14) | 3 | -1.15 | inactive |
| MAP3K14 (mitogen-activated protein kinase kinase kinase 14) | 4 | 0.836 | inactive |
| MAP3K14 (mitogen-activated protein kinase kinase kinase 14) | 5 | -0.633 | inactive |
| MAP3K14 (mitogen-activated protein kinase kinase kinase 14) | 6 | -1.42 | inactive |
| RELB (RELB proto-oncogene, NF-kB subunit) | 1 | -0.154 | inactive |
| RELB (RELB proto-oncogene, NF-kB subunit) | 2 | -0.322 | inactive |
| RELB (RELB proto-oncogene, NF-kB subunit) | 3 | -0.311 | inactive |
| RELB (RELB proto-oncogene, NF-kB subunit) | 4 | -1.21 | inactive |
| RELB (RELB proto-oncogene, NF-kB subunit) | 5 | -0.7 | inactive |
| RELB (RELB proto-oncogene, NF-kB subunit) | 6 | 0.449 | inactive |
| ARF6 (ARF GTPase 6) | 1 | 0.989 | inactive |
| ARF6 (ARF GTPase 6) | 2 | 0.0558 | inactive |
| ARF6 (ARF GTPase 6) | 3 | 0.04 | inactive |
| ARF6 (ARF GTPase 6) | 4 | -1.36 | inactive |
| ARF6 (ARF GTPase 6) | 5 | 0.573 | inactive |
| ARF6 (ARF GTPase 6) | 6 | 0.258 | inactive |
| ITGAM (integrin subunit alpha M) | 1 | 0.804 | inactive |
| ITGAM (integrin subunit alpha M) | 2 | -1.27 | inactive |
| ITGAM (integrin subunit alpha M) | 3 | -0.0326 | inactive |
| ITGAM (integrin subunit alpha M) | 4 | -0.585 | inactive |
| ITGAM (integrin subunit alpha M) | 5 | -0.288 | inactive |
| ITGAM (integrin subunit alpha M) | 6 | -0.437 | inactive |
| MAPK11 (mitogen-activated protein kinase 11) | 1 | -0.431 | inactive |
| MAPK11 (mitogen-activated protein kinase 11) | 2 | -0.734 | inactive |
| MAPK11 (mitogen-activated protein kinase 11) | 3 | -1.3 | inactive |
| MAPK11 (mitogen-activated protein kinase 11) | 4 | -0.364 | inactive |
| MAPK11 (mitogen-activated protein kinase 11) | 5 | -0.455 | inactive |
| MAPK11 (mitogen-activated protein kinase 11) | 6 | -0.126 | inactive |
| TLR2 (toll like receptor 2) | 1 | 1.34 | inactive |
| TLR2 (toll like receptor 2) | 2 | 0.415 | inactive |
| TLR2 (toll like receptor 2) | 3 | -1.62 | active |
| TLR2 (toll like receptor 2) | 4 | 1.28 | inactive |
| TLR2 (toll like receptor 2) | 5 | -0.676 | inactive |
| TLR2 (toll like receptor 2) | 6 | 0.319 | inactive |
| PELI1 (pellino E3 ubiquitin protein ligase 1) | 1 | -0.779 | inactive |
| PELI1 (pellino E3 ubiquitin protein ligase 1) | 2 | -0.734 | inactive |
| PELI1 (pellino E3 ubiquitin protein ligase 1) | 3 | 0.891 | inactive |
| PELI1 (pellino E3 ubiquitin protein ligase 1) | 4 | -1.89 | active |
| PELI1 (pellino E3 ubiquitin protein ligase 1) | 5 | -0.413 | inactive |
| PELI1 (pellino E3 ubiquitin protein ligase 1) | 6 | -0.0882 | inactive |

Single entries from above.
Result for ITGAM (integrin subunit alpha M) #3 in “TNF reporter z-score”: -0.0326
Result of MAPK11 (mitogen-activated protein kinase 11) #4 in “TNF reporter z-score”: -0.364
Entry for LY86 (lymphocyte antigen 86) #2 under “activity call”: inactive
TLR2 (toll like receptor 2) #2, activity call: inactive
Under “TNF reporter z-score”, ITGAM (integrin subunit alpha M) #4 has -0.585
PELI1 (pellino E3 ubiquitin protein ligase 1) #5, activity call: inactive
